SMILES strings stand for the structures. This is one part of the list. The main result of the screen is listed elsewhere. These columns were measured beside it and carry no call. Compounds called inactive in the main read-out are mostly missing here. Words in brackets tell the shape of the fitted curve; partial curves, single points and poor fits give uncertain potencies.

Usually AC50 stands for the concentration at which the activity in the assay is half-maximal. Read a low AC50 as activity at low concentration.

This assay can be described thus: qHTS Assay for Lipid Storage Modulators in Drosophila S3 Cells.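 As to cell number change: cells counted by Cell Tracker Red CMTPX staining in the red channel.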 The settings on record: BODIPY lipid droplet fluorescence, 18-24 h; for cell number change: measured here: cell count max response, cells fed with added oleic acid. In short, it runs like this:
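Drosophila S3 cells got compounds at several concentrations plus oleic acid (400 uM solution). Laser-scanning cytometry with 488 nm excitation read lipid droplets at 500-530 nm and cells at 575-640 nm. Percent activity was relative to 20 uM Triacsin C.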
(In general: In qHTS, concentration-response curves come from the screen itself.)

Where [1] appears, read: measured here: lipid fluorescence (Fed channel) AC50, cells fed with added oleic acid.
Where [2] appears, read: measured here: cell number channel AC50, cells fed with added oleic acid.

`CC1=C(C(=O)OC(C)C)C(c2cccnc2)n2ncnc2N1` (centres undefined): the AC50 under setting [1] is 0.411 µM [rising, single point].
Consider `Cc1ccc(-c2csc(NC(=O)N3CCOCC3)n2)cc1`, for which the cell number change is -22.5%. Under setting [2], the concentration at half-maximal activity (AC50) was 3.66 µM [falling, full curve, poor fit]. Further, the AC50 under setting [1] was 6.51 µM [falling, single point].
With `CSCCOC(=O)COc1ccc(/C=N/NC(=O)c2nn(C)cc2Cl)cc1`, under setting [1], the AC50 is 6.51 µM [rising, single point].
Turning to `CC(Sc1nnc(-c2ccccc2)c(-c2ccccc2)n1)C(=O)N1CCc2ccccc21` (centres undefined), the cell number change is -22.3%. Moreover, the AC50 under setting [1] is 18.4 µM [falling, single point].
Turning to `COCCCN1C(=O)C(=O)/C(=C(/O)c2ccc(S(=O)(=O)N3CCCCC3)cc2)C1c1cccc(OC)c1` (centres undefined), the cell number change turned out to be 31%. For the same compound, the AC50 under setting [2] is 0.92 µM [rising, full curve, poor fit]. In addition, the AC50 under setting [1] was 29.1 µM [rising, single point].
Regarding `COc1ccccc1CNC(=O)COC(=O)C1CCN(S(=O)(=O)c2ccc(C)c(C)c2)CC1`, the AC50 under setting [1] was 20.6 µM [rising, single point].
For `COc1ccc(NS(=O)(=O)c2ccc3c(c2)NC(=O)C(C)S3)cc1` (centres undefined), the cell number change was -15.3%. Also, under setting [1], the AC50 is 29.1 µM [falling, single point].
For the compound `COc1ccc(NC(=O)c2cnc(SCC(=O)NCCc3ccccc3)n(C)c2=O)cc1`, the AC50 under setting [1] is 1.46 µM [rising, partial curve].
Turning to `Cn1c(S(=O)(=O)O)nc2ccccc21`, the cell number change is -2.88%. For the same compound, the AC50 under setting [1] was 4.61 µM [rising, partial curve].
For `Cc1nnc(-c2cnn(C)c2N)n1Cc1ccccc1F`, the cell number change stood at 42.3%. Moreover, the concentration at half-maximal activity (AC50) under setting [2] is 16.4 µM [rising, single point].
For `CC(C)(C)c1ccc(C(=O)NCCC(=O)Nc2cc(Cl)ccc2N2CCOCC2)cc1`, the cell number change is -21.4%. Moreover, the AC50 under setting [1] was 0.146 µM [falling, full curve, poor fit].
Regarding `O=C(O)C1CCN(C(=O)c2cccc3ccccc23)CC1`, the cell number change is 24.6%. Further, under setting [1], the AC50 is 0.92 µM [falling, full curve, poor fit].
For `Cc1cc(Cl)ccc1OCC(=O)NN1C(=O)C2C3C=CC(C3)C2C1=O` (centres undefined), the cell number change is -14.9%. Further, the AC50 under setting [1] was 6.51 µM [rising, partial curve, poor fit].
`Cc1ccc2c(CN3CCN(CCO)CC3)cc(=O)oc2c1`: the cell number change was -5.48%. Under setting [2], the AC50 is 6.51 µM [rising, single point].
With `Cc1ccc(NC2=C(N3CCOCC3)C(=O)c3ccccc3C2=O)cc1`, the cell number change was -167%. Also, the AC50 under setting [2] is 29.1 µM [falling, single point]. Moreover, under setting [1], the AC50 was 29.1 µM [falling, single point].
For `O=C(CSc1nnc(NCc2ccccc2)s1)NC1CCS(=O)(=O)C1` (centres undefined), the cell number change was -7.49%. Also, the AC50 under setting [1] is 0.0058 µM [falling, full curve].
For `O=C(COc1ccc(Cl)cc1Cl)NC(=S)N1CCCc2ccccc21`, the cell number change is 53.7%. The AC50 under setting [2] was 11.6 µM [rising, partial curve]. Further, the AC50 under setting [1] was 0.58 µM [rising, single point].
Consider `O=[N+]([O-])c1ccc(S(=O)(=O)Nc2ccncc2)cc1`, for which the cell number change is -1.76%. For the same compound, the concentration at half-maximal activity (AC50) under setting [1] was 0.651 µM [rising, full curve, poor fit].
`FC(F)(F)c1cccc(Cc2noc(CN3CCSCC3)n2)c1`: the cell number change stood at 3.26%. For the same compound, under setting [1], the AC50 was 2.91 µM [rising, partial curve].
Take `O=C(NN1C(=O)C2C(C1=O)C1C=CC2C12CC2)c1ccccc1` (centres undefined): the cell number change was 21.9%. Moreover, the AC50 under setting [1] is 23.1 µM [rising, single point].
On to `CCOC(=O)c1ccc(NC(=O)c2c(NC(=O)CCC(=O)O)sc3c2CCCCC3)cc1`, for which the cell number change was -31.6%. The AC50 under setting [2] was 29.1 µM [falling, single point].
On to `O=C(Nc1ccccn1)c1cc(-c2ccc(Cl)s2)nc2ccccc12`, for which the cell number change was determined as 16.3%. In addition, the AC50 under setting [2] is 0.13 µM [rising, full curve, poor fit]. Further, the AC50 under setting [1] is 5.17 µM [rising, partial curve, poor fit].
As for `Cc1ccc(C)c(-c2csc(N)c2C(=O)OC(C)C)c1`, the cell number change was -26%. Also, the AC50 under setting [2] was 0.082 µM [falling, full curve, poor fit]. Further, the half-maximal activity concentration (AC50) under setting [1] was 0.116 µM [falling, full curve, poor fit].
Turning to `CCOC(=O)N1CCN(C(=O)c2ccc(N3C(=O)c4ccccc4C3=O)cc2)CC1`, the cell number change worked out at 5.21%. Under setting [1], the AC50 was 18.4 µM [rising, single point].
Regarding `Cc1ccc(-c2nn(C)c(=O)c3ccccc23)cc1S(=O)(=O)NCCO`, the cell number change is -7.29%. Besides, the AC50 under setting [1] was 0.231 µM [rising, partial curve, poor fit].
For `CC(=O)c1c(C)[nH]c(C(=O)CN2CCN(S(=O)(=O)c3ccc(C(C)C)cc3)CC2)c1C`, the cell number change is -16.8%. Further, the AC50 under setting [1] was 0.326 µM [falling, full curve, poor fit].
Turning to `O=P(c1ccccc1)(c1ccccc1)c1nc(-c2ccc(Cl)cc2)oc1N1CCOCC1`, the cell number change was -54.5%. For the same compound, the AC50 under setting [2] was 23.1 µM [falling, single point]. For the same compound, under setting [1], the AC50 was 18.4 µM [falling, single point].
With `CCOc1ccc(-n2cc(C(=O)Nc3cccc(Cl)c3)c3cc(OC)c(OC)cc3c2=O)cc1`, the cell number change is -8.71%. Under setting [1], the AC50 is 29.1 µM [rising, single point].
For the compound `O=C(O)CC(CC(=O)O)(C(=O)O)c1ccccc1`, the cell number change is -20.2%. Besides, the AC50 under setting [2] was 0.116 µM [falling, full curve, poor fit].
Take `CC1CCC(NS(=O)(=O)c2ccc(Cl)s2)CC1` (centres undefined): the cell number change was determined as 64.7%.
As for `C=CCNC(=S)Nc1cccc2[nH]ncc12`, the cell number change is -50.1%. In addition, the AC50 under setting [2] was 0.259 µM [falling, partial curve, poor fit].
With `Cc1ccc(CONC(=O)c2ccc(C)cc2)cc1`, the cell number change is -8.39%. Also, the AC50 under setting [1] is 0.82 µM [rising, partial curve, poor fit].
Turning to `O=C1c2oc3ccc(F)cc3c(=O)c2C(c2ccccc2)N1CC1CCCO1` (centres undefined), the cell number change is -2.95%.
On the same count and under the same terms, next, `CC(C)CN(C(=O)CN(C)C(=O)Cc1ccccc1Cl)c1c(N)n(CC(C)C)c(=O)[nH]c1=O`: 4.69%.
For `CCn1c(-c2cc(-c3cc(OC)ccc3OC)nc3ccccc23)n[nH]c1=S`, the cell number change turned out to be 113%. In addition, the AC50 under setting [2] was 9.2 µM [rising, partial curve]. Moreover, the AC50 under setting [1] was 20.6 µM [rising, partial curve].
As to `CCOc1ccc(NC(=O)CN(C)C(=O)c2cc([N+](=O)[O-])ccc2N2CCOCC2)cc1OCC`, the AC50 runs as follows: under setting [2], 6.51 µM [falling, single point]; under setting [1], 3.26 µM [falling, full curve, poor fit].
On to `NS(=O)(=O)c1ccc(CCNC(=O)c2ccc(Cl)nc2)cc1`, for which the cell number change is 24.6%. Also, the AC50 under setting [1] was 0.731 µM [falling, partial curve, poor fit].
Turning to `O=C(COc1ncnc2cc(Cl)ccc12)c1ccccc1`, the cell number change is 31.1%. In addition, under setting [2], the AC50 was 0.517 µM [rising, full curve, poor fit].
Take `C[C@H](NC(=O)c1ccccc1Cl)C(=O)NCCc1ccc(S(N)(=O)=O)cc1`: the cell number change is 24.3%. Moreover, the AC50 under setting [1] is 6.51 µM [falling, partial curve, poor fit].
For the compound `Cc1ccc(S(=O)(=O)N2CCN(C(=O)COC(=O)COc3cccc4c3OC(C)(C)C4)CC2)cc1`, the cell number change was -14.4%. For the same compound, the AC50 under setting [2] was 0.092 µM [falling, full curve, poor fit]. Further, under setting [1], the concentration at half-maximal activity (AC50) was 3.66 µM [falling, full curve].
As to `COc1ccc2c3c(c(=O)oc2c1)C1O[C@](c2ccsc2)(Cc2cc(C#N)ccc21)O3`, the cell number change was determined as 13.8%. Besides, under setting [1], the AC50 was 5.31 µM [rising, single point].
For `Cc1noc(C)c1S(=O)(=O)N(CC(=O)N1CCCC1)c1ccc(C(C)C)cc1`, the cell number change turned out to be 34.9%. Further, under setting [2], the AC50 is 29.1 µM [rising, single point]. Also, the AC50 under setting [1] is 29.1 µM [rising, single point].
With `CCCCC(=O)NC(NC(=O)CCCC)c1ccc(OCCC)c(OC)c1`, the cell number change is -26.8%. The concentration at half-maximal activity (AC50) under setting [2] is 0.651 µM [falling, full curve, poor fit]. Also, the AC50 under setting [1] is 23.1 µM [rising, single point].
With `N#Cc1nc(-c2ccccc2Cl)oc1NCC1CCCO1` (centres undefined), the cell number change stood at 4.05%. The AC50 under setting [1] is 0.184 µM [falling, full curve, poor fit].
Turning to `CC1(C)C(=O)Nc2ccccc2N1C(=O)COC(=O)c1ccc(NC(N)=O)cc1`, the cell number change stood at 14%.
Regarding `CCc1nnc(NC(=O)CN2CCN(Cc3cccc(F)c3)CC2)s1`, the cell number change was 20.5%. Also, the AC50 under setting [1] was 6.51 µM [rising, partial curve, poor fit].
In the case of `Cc1csc(NC(=O)c2nn(C)c(C)c2[N+](=O)[O-])n1`, the cell number change is -11.5%. Further, the AC50 under setting [2] was 3.26 µM [falling, single point]. For the same compound, the AC50 under setting [1] was 20.6 µM [rising, single point].
For `CN(CC(=O)Nc1ccc(F)cc1)CC(=O)N(C)C1(C#N)CCCCC1`, the cell number change was -10.2%. The AC50 under setting [1] was 0.731 µM [rising, single point].
For `c1ccc2c(c1)ncn2CCC1CCCCC1`, the cell number change was -33.7%. Under setting [2], the AC50 was 18.4 µM [falling, single point].
As to `N#Cc1nc(-c2cccs2)oc1NCc1ccc2c(c1)OCO2`, the cell number change is -15.3%.
On the same count and under the same terms, next, `Cc1ccc(N/C=C2\C(=O)N(c3ccc(F)cc3F)C(c3cccnc3)S2(=O)=O)cc1` (centres undefined): 12.1%.
Turning to `CCN(C1CCCCC1)S(=O)(=O)CCNC(=O)c1ccccc1`, the AC50 under setting [1] is 1.84 µM [rising, partial curve, poor fit].
Take `COCCCNC(=S)N/N=C/c1ccc2c(c1)OCO2`: the cell number change turned out to be 19.1%. Further, the AC50 under setting [1] was 1.16 µM [rising, partial curve, poor fit].
On to `O=C(COc1ccc(Br)cc1)Nc1ccccc1C(=O)N1CCOCC1`, for which the cell number change was determined as 16.6%. Further, under setting [1], the AC50 is 0.092 µM [rising, partial curve, poor fit].
As to `CCOc1cccc(-c2nnc3n2N=C(c2cc(OC)ccc2OC)CS3)c1`, the cell number change is -34.7%. In addition, under setting [2], the AC50 was 3.26 µM [falling, partial curve]. Further, under setting [1], the AC50 was 9.2 µM [falling, partial curve].
As to `O=S(=O)(c1ccc2ccccc2c1)N1CCOCC1`, the cell number change was found to be 2.38%. In addition, the AC50 under setting [1] is 16.4 µM [falling, partial curve].
